According to article PMC3710277:
These are yes or no findings as the source states them, for the method shown. In cells and extracts the contact can be indirect. Some binding calls cover weakened binding; strength is not graded here. Sequences can lack the tags named with a protein.

Amino acid sequences for entries named in this document (tags omitted).
UniProt Q92949: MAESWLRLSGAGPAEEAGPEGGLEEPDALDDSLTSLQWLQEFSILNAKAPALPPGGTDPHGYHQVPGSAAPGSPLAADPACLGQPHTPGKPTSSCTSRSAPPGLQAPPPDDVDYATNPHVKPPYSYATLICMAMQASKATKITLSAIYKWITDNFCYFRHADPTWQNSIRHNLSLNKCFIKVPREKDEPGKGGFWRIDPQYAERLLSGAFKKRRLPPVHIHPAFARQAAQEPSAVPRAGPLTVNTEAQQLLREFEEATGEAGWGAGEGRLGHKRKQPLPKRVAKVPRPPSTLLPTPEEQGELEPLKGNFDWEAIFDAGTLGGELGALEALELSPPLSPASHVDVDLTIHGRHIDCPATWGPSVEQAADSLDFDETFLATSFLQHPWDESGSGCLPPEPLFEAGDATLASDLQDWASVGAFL

Biological target: T1, FLAG-tagged regulatory factor X3 (RFX3) (human) (UniProt P48380)
T1 sequence: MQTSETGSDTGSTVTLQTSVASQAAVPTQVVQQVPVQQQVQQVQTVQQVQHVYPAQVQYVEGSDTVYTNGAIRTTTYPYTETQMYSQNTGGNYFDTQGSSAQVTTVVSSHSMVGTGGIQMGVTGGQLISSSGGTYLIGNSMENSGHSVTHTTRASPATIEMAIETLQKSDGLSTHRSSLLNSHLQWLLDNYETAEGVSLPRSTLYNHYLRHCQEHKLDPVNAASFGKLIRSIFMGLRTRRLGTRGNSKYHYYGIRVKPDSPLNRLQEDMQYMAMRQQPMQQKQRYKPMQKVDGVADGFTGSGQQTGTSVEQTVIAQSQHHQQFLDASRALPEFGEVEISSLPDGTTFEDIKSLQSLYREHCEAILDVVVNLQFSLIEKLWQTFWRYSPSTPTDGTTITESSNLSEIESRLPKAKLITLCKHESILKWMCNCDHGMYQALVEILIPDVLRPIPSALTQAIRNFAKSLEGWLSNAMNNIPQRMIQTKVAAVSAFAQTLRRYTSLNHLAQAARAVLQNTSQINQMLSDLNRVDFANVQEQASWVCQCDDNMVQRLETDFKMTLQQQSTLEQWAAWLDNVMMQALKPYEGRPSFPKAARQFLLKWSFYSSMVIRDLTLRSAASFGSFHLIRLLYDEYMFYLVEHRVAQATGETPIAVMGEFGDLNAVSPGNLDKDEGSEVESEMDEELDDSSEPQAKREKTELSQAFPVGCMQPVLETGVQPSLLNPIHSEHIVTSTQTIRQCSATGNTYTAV
Assay: co-IP; 293A cells co-transfected with PGK.FOXJ1 and CMV.FLAG-RFX3; lysates prepared after 48 hr, incubated overnight with Anti-FLAG M2 affinity gel, eluted with FLAG peptide; Western blot with antibodies for FOXJ1, FLAG and GAPDH

With “Forkhead box J1 (FOXJ1) (from UniProt Q92949 1-421)” the binding was “binds”.
